Assay results taken from PMC4813545.

The chains behind the UniProt entries cited, without tags or fusion partners.
UniProt Q8TCU6: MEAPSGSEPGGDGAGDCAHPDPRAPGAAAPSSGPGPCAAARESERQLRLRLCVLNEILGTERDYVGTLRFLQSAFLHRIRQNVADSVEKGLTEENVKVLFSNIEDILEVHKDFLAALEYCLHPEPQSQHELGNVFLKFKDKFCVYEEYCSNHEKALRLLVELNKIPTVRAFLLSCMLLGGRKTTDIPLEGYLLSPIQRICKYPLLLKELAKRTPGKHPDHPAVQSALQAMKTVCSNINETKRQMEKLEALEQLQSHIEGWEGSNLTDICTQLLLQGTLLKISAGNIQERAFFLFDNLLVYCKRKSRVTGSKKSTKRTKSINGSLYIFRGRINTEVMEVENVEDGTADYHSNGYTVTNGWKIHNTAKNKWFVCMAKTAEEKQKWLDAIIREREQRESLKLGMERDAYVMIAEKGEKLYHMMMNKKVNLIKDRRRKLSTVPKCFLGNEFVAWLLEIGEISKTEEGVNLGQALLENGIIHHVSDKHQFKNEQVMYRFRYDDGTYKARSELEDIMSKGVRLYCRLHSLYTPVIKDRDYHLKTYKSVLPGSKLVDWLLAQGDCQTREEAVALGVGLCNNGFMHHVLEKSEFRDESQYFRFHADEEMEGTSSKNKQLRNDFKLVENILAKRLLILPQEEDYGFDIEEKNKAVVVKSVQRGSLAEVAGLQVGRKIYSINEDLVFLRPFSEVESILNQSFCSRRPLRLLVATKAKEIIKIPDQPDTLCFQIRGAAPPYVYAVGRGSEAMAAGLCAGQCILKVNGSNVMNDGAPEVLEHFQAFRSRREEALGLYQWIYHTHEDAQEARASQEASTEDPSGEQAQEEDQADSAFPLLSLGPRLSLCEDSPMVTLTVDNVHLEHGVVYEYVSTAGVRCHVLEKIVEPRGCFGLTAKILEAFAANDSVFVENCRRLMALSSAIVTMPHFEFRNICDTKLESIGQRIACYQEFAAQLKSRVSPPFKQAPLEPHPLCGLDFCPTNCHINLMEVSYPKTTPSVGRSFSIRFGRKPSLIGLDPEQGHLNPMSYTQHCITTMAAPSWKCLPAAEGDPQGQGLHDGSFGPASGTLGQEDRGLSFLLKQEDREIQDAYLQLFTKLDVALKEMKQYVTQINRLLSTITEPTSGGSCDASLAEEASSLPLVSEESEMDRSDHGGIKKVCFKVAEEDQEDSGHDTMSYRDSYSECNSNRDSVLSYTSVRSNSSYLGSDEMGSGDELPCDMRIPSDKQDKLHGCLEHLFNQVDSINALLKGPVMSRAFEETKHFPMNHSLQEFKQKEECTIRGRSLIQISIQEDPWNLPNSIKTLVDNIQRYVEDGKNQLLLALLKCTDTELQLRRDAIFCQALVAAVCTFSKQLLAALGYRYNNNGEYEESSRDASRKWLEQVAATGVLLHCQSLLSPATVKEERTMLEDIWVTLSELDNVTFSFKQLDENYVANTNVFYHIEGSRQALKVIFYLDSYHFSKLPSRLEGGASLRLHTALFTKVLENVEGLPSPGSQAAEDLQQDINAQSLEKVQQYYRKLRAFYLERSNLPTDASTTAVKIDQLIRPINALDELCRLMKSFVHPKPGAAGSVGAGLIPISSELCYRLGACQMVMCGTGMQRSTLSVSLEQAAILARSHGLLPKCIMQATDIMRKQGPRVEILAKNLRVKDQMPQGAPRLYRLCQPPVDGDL
UniProt Q922D8: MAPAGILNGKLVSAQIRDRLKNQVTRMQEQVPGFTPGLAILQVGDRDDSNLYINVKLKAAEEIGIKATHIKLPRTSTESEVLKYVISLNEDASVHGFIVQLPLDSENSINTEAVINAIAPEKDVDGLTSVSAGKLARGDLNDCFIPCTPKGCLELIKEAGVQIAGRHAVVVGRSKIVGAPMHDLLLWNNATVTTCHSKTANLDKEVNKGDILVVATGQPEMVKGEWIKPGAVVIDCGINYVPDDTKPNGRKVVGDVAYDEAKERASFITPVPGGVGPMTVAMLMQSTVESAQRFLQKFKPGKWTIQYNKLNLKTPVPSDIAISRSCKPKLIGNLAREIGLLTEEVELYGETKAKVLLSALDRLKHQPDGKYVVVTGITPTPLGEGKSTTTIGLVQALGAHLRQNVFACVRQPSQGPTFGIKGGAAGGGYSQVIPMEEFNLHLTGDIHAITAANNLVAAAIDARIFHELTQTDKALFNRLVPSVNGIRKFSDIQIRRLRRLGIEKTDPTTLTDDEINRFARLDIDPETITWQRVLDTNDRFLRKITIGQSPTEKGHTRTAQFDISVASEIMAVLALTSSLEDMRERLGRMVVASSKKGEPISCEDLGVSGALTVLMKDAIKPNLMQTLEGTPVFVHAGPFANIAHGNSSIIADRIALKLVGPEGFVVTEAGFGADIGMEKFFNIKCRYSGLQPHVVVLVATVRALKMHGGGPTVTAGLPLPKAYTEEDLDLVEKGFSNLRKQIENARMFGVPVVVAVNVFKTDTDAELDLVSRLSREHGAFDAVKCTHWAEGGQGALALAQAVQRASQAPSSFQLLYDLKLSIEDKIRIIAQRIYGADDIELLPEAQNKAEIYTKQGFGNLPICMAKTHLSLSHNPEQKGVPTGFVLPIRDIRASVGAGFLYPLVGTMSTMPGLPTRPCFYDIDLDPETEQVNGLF
UniProt O08599: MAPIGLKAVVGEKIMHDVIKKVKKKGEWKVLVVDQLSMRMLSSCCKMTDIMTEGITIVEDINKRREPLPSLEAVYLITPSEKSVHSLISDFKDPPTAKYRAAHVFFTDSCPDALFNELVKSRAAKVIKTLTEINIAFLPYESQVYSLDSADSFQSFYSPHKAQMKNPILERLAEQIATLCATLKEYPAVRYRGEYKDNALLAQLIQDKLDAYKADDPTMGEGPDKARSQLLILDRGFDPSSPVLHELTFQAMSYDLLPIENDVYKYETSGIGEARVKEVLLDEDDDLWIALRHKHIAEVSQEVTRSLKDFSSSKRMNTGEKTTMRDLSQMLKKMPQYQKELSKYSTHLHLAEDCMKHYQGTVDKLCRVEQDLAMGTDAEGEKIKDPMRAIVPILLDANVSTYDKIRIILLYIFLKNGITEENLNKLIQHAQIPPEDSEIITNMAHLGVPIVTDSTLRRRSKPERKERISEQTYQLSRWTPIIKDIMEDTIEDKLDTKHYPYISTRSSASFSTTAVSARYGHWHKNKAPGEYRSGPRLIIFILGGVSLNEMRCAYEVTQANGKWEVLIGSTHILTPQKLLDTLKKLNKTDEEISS

B1: Norbin (Neurochondrin, NCDN) from P-Rex1-/- mouse brain cytosol (protein, UniProt Q9Z0E0 1-729)
chain: MSCCDLAAAGQLGKAGIMASDCEPALNQAESRNPTLERYLGALREAKNDSEQFAALLLVTKAVKAGDIDAKTRRRIFDAVGFTFPNRLLTTKEAPDGCPDHVLRALGVALLACFCSDPELASHPQVLNKIPILSTFLTARGDPDDAARRSMIDDTYQCLTAVAGTPRGPRHLIAGGTVSALCQAYLGHGYGFDQALALLVGLLAAAETQCWKEAEPDLLAVLRGLSEDFQRAEDASKFELCQLLPLFLPPTTVPPECHRDLQAGLARILGSKLSSWQRNPALKLAARLAHACGSDWIPVGSSGSKFLALLVNLACVEVRLALEETGTEVKEDVVTACYALMELGIQECTRCEQSLLKEPQKVQLVSIMKEAIGAVIHYLLQVGPEKQKEPFVFASVRILGAWLAEETSSLRKEVCQLLPFLVRYAKTLYEEAEEASDISQQVANLAISPTTPGPSWPGDALRLLLPGWCHLTVEDGPREILIKEGAPSLLCKYFLQQWELTSPGHDTSVLPDSVEIGLQTCCHIFLNLVVTAPGLIKRDACFTSLMNTLMTSLPSLVQQQGRLLLAANVATLGLLMARLLSTSPALQGTPASRGFFAAAILFLSQSHVARATPGSDQAVLALSPDYEGIWADLQELWFLGMQAFTGCVPLLPWLAPAALRSRWPQELLQLLGSVSPNSVKPEMVAAYQGVLVELARANRLCREAMRLQAGEETASHYRMAALEQCLSEP

These molecules were tested against purified recombinant human full-length EE-P-Rex1 protein (human) (UniProt Q8TCU6) (assay: affinity purification with mass spectrometry; 10 μg purified EE-P-Rex1 immobilised on EE antibody coupled to protein G-Sepharose, incubated 2 h at 4 °C with anion exchange fractions of P-Rex1-/- mouse brain cytosol adjusted to 150 mM NaCl; control EE-antibody beads alone; bands cut from silver-stained SDS-PAGE gels, LC/MS; only the target purified).

binding, binds:
C1TC from P-Rex1-/- mouse brain cytosol (from UniProt Q922D8 1-935)
STXB1 from P-Rex1-/- mouse brain cytosol (from UniProt O08599 1-594)
B1

These are yes or no findings as the source states them, for the method shown. In cells and extracts the contact can be indirect. Here binding means that the protein was enriched with, or labelled near, the bait; the list need not be complete.
